# Percent effect of library compounds

By UniProt entry, the sequences of proteins in these tests, tags left out. Residues count along the entry.
UniProt P9WNZ1, whole entry: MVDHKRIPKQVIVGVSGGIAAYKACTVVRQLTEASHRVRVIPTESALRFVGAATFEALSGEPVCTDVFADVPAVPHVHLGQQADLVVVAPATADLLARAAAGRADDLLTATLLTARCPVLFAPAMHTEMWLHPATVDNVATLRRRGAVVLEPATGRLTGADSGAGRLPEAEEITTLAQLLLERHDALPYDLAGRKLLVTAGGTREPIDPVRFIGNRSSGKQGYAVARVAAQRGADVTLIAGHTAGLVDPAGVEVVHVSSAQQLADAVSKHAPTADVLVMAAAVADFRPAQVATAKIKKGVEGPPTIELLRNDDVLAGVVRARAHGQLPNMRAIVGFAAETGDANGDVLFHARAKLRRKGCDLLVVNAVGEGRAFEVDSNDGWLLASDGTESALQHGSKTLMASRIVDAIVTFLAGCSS
UniProt I6X8D2, whole entry: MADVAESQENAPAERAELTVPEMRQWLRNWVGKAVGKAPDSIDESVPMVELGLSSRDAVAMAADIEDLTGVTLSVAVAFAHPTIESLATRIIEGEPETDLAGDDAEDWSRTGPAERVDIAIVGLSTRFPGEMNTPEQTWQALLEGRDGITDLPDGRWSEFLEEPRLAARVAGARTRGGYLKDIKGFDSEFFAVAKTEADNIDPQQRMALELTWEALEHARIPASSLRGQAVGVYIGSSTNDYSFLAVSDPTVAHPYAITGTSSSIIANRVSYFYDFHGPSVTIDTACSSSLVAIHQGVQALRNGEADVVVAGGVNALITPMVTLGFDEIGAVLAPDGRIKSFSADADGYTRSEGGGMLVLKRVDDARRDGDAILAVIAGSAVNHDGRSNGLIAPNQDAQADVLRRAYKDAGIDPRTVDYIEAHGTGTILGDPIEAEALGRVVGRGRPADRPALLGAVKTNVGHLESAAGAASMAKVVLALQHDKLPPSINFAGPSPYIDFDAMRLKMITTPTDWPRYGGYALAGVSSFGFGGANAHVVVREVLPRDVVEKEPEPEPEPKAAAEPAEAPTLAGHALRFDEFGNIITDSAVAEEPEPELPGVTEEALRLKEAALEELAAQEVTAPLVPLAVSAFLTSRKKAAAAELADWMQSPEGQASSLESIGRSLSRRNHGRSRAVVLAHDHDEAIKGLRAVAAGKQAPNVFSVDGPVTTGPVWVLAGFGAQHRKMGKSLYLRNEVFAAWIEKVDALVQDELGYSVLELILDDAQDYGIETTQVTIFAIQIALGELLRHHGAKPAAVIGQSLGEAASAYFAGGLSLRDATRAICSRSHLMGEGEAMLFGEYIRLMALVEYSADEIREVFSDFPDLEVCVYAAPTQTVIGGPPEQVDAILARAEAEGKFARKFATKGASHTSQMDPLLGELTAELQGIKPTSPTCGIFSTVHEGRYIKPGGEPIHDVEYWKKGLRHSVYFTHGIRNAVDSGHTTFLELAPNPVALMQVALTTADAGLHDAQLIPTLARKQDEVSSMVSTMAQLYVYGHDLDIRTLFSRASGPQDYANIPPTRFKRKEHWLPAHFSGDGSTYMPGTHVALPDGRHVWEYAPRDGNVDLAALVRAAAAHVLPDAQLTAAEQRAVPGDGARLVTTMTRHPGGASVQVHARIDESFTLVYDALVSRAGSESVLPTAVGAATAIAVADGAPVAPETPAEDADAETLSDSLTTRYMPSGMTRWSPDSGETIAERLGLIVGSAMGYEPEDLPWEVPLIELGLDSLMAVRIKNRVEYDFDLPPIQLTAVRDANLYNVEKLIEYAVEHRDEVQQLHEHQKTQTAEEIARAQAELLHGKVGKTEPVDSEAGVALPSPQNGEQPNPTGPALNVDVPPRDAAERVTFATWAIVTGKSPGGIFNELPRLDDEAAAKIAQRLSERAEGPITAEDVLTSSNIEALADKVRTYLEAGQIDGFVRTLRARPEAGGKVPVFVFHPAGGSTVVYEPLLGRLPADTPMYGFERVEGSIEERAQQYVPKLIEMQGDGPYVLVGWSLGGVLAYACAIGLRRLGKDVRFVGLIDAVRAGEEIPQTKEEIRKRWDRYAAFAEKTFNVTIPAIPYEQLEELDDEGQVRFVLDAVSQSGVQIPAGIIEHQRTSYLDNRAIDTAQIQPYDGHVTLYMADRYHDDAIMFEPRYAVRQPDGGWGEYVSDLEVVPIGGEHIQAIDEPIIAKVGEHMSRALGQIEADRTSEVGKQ
UniProt P9WPC5, whole entry: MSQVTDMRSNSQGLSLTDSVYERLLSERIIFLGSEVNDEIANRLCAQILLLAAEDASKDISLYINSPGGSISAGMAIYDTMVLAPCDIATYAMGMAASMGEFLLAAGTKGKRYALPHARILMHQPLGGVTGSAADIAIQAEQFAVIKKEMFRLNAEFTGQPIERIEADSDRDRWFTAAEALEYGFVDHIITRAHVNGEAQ
UniProt P9WPC3, whole entry partner: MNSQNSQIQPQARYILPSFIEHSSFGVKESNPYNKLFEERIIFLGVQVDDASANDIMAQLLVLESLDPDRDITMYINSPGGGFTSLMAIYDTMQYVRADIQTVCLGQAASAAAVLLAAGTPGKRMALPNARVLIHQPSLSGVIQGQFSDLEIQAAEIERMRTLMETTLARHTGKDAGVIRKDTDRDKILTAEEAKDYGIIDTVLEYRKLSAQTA
UniProt A4I591, 1-473: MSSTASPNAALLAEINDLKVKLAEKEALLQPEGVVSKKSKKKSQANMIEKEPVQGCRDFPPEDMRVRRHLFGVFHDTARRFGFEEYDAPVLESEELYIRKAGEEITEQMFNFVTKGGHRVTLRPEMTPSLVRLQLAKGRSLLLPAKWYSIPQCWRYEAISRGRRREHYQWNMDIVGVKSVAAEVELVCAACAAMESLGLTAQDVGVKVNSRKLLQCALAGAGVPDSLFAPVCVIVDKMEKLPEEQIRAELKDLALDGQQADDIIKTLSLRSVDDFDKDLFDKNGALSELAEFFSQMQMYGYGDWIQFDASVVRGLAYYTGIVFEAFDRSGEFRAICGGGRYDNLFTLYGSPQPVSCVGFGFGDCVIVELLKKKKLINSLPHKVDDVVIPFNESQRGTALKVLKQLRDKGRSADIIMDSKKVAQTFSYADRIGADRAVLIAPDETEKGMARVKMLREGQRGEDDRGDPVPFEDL
UniProt P9WFT3, whole entry: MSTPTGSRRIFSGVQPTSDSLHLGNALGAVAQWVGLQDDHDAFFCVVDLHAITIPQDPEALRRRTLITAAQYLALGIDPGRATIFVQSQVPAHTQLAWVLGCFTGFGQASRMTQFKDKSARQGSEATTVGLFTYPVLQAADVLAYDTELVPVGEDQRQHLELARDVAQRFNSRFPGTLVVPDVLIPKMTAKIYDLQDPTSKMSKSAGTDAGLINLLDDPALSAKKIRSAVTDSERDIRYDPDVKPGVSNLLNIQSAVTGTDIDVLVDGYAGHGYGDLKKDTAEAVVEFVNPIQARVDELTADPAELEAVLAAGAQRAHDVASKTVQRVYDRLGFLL

Values are the deposited “Percent Effect”, in %.
The record does not define 0% and 100%; most values in the screen are far below 50% and negative numbers occur (in some assays of this library far below -100).
The compounds are a random part of those screened.
A dash means the value is not listed here; it may have been measured.

CoaBC: 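Coenzyme A biosynthesis protein CoaBC, Mycobacterium tuberculosis (UniProt P9WNZ1). Enzyme assay of CoaBC with a phosphate dye (Biomol Green) read at 650 nm. Compounds at 30 µM. Direction is inferred from only a few compounds that gave an IC50; most scored high, so higher reads as stronger inhibition. Most strong results did not repeat in a second test. Of about 67,000 compounds tested this way, about 40 (0.06%) reached 50% or more in at least one test.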
Pks13 thioesterase: 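Enzyme assay of the thioesterase domain of polyketide synthase 13; the read-out is not stated. Target: Polyketide synthase Pks13, Mycobacterium tuberculosis (UniProt I6X8D2). Concentration: 30 µM. The record gives no direction; the compounds picked for IC50 retests had high values, so higher reads as stronger inhibition. Of about 67,000 compounds tested this way, about 300 (0.46%) reached 50% or more in at least one test.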
ClpP1P2: 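ClpP1P2, Mycobacterium tuberculosis (UniProt P9WPC5 and UniProt P9WPC3). Protease assay of ClpP1P2, read by the AMC dye that it sets free. Tested at 50 µM. Higher reads as stronger inhibition, judged from the few compounds that gave an IC50. Most other retested compounds had strongly negative values. Size under these conditions: about 69,000 compounds, about 10 of them at 50% or above in at least one test.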
LiHisRS: 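Histidine-tRNA ligase, Leishmania infantum (UniProt A4I591). Enzyme assay of histidyl-tRNA synthetase; the read-out is not stated. Concentration: 30 µM. Direction is inferred from retests: higher values go with stronger inhibition. The assay is labelled LdHisRS but filed under L. infantum. Size under these conditions: about 69,000 compounds, about 410 of them at 50% or above in at least one test.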
MtTrpRS: 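Tryptophan-tRNA ligase, Mycobacterium tuberculosis (UniProt P9WFT3). Enzyme assay of tryptophanyl-tRNA synthetase; the read-out is not stated. Concentration: 10 µM. Direction is not recorded; retested compounds ran higher, which suggests that high means inhibition. Size under these conditions: about 65,000 compounds, about 64 of them at 50% or above in at least one test.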

Compound	CoaBC	Pks13 thioesterase	ClpP1P2	LiHisRS	MtTrpRS
Clc1ccccc1CCN1CCN(c2ccc3nncn3n2)CC1	7.646	-4.221	-4.133	36.54	-2.901
Cc1ccc2c(c1)C(=O)NCC1(CCN(C(=O)c3ccccn3)CC1)O2	6.568	-8.768	-3.371	32	-
Cc1csc(Nc2cc(C3CCCCN3C)nc(C)n2)n1 (centres unmarked)	18.39	-19.81	9.552	-3.65	-1.586
CSCCCn1ccnc1-c1cccc(C#N)c1	13.25	6.01	8.309	25.37	2.275
O=C(CCc1ccccc1)NCC(O)c1c(F)cccc1F (centres unmarked)	1.04	-17.74	-13.68	7.143	0.07178
O=c1ccc(-c2ccccc2F)nn1CN1CCCCCC1	-3.39	-10.08	-22.78	28.26	2.593
Cc1cnn(CC2CCCCN2Cc2nc(N)c3ccccc3n2)c1 (centres unmarked)	-0.7712	-54.55	-13.82	19.1	1.18
CCCNc1cc(C(=O)N2CCOCC2)nc(C)n1	12.97	-2.877	-17.82	8.85	5.591
COCC1CN(C(=O)c2cccc(C)n2)Cc2ncnn2C1 (centres unmarked)	-0.4894	-22.03	-5.274	17.81	-5.542
O=C(c1cc(=O)c(OCc2ccccc2F)co1)N1CCCC1	2.278	2.112	2.723	10.53	-5.249
O=C(NC1CC1)[C@H]1COC[C@H]2CN(c3ncc(F)cn3)C[C@H]21	-	-23.64	1.629	11.97	1.453
Cc1ccc(C)c(NC(=O)Cn2nc(C)c(C#N)c2N)c1	0.8547	-	-16.82	3.419	-2.355
CC(C)CC(C)NCCCN1CCCN(C)CC1 (centres unmarked)	2.025	17.06	12.52	-5.263	-0.7498
O=C(O)[C@@H]1CN(C(=O)CCCc2ccc(F)cc2)C[C@H]1C1CC1	-8.442	-4.522	-9.057	6.557	5.797
CC(C)c1cc(C(=O)N2CCOCC2CC(=O)c2ccco2)nn1C (centres unmarked)	5.656	-17.26	1.623	17.98	2.494
COCc1nc2nc(O)c3c(n2n1)NC(=O)CC3c1ccc(SC)cc1 (centres unmarked)	-4.893	-17.61	-8.812	11.86	-2.76
Cc1nc([C@@H]2C[C@@H]3CCN(Cc4cnn(C)c4)C[C@H]3O2)sc1C	3.426	-30.39	-10.02	15.07	2.811
CC(C)N1CCC(Cc2cc(-c3cccc(C(=O)O)c3)ncn2)CC1	-0.2421	-0.5058	-6.177	6.186	-
COc1ncc(C2(O)CCN(Cc3ccccc3O)CC2)c(OC)n1	0.9162	-12.37	3.565	22.86	0.4167
COCC1(CNc2cc(C(C)C)nc(N)n2)CC1	-1.129	-4.168	-10.34	13.56	-2.287
Cc1nc(C)c(CC(=O)Nc2nnc(C)s2)c(=O)[nH]1	-1.33	-6.921	7.262	39.2	0.6289
CCc1ncc(-c2nccn2-c2cccc(CC(=O)O)c2)cn1	5.955	-3.068	-0.4871	14.89	-0.1903
CCN(Cc1noc(C2CCC2)n1)C(=O)c1cn2ccsc2n1	-1.948	-19.27	-10.03	1.639	-2.254
CC(C)[C@@H]1CN(C(=O)C2(c3ccccc3)CCN(C)CC2)C[C@H]1C(=O)O	0.1229	-13.1	-11.36	3.101	1.888
O=C([C@H]1CCCO1)N1CCC2(CC1)Cc1ccccc1CNC2=O	1.478	-5.863	4.772	14	-7.277
CN(C)CCN(CC1CCCO1)S(=O)(=O)NCc1ccccc1 (centres unmarked)	-4.978	-4.956	-14.55	-11.48	7.568
COc1cccc2ccc(N3CCC(O)(c4ccc(C)cn4)CC3)nc12	12.42	9.864	-74.61	13.25	4.285
COCCN1CCC(C(=O)N(C)Cc2c[nH]c3ccc(C)cc23)C1 (centres unmarked)	5.405	-	-4.263	19.84	3.361
CCCN1CCN(c2nc(N)nc3c2nc(C)n3C)CC1	-16.93	-8.195	0.7877	21.35	-0.4045
CN1CCCC1c1ccc(C(=O)N2CCc3ccccc3C2)s1 (centres unmarked)	-29.96	-4.518	-13.92	-11.32	-24.64
CCc1oc(C(=O)N[C@@H]2c3ccccc3C[C@@H]2O)cc1CN1CCCC1	-10.15	-7.762	-17.18	13.33	1.782
COc1ccc(C)cc1C(=O)N1CCCC(n2cncn2)C1 (centres unmarked)	0.2681	-16.6	-18.81	6.838	3.805
CCc1nc(C2CCCN2C(=O)c2ccc(=O)n(CC)n2)no1 (centres unmarked)	0.9569	-10.06	16.62	5	8.252
CCOc1ccc(C(=O)NC2CCN(c3ncccn3)CC2)cc1C	-4.866	4.118	-2.627	17.78	4.866
O=c1c(NCc2ccco2)c(NCC(O)CN2CCOCC2)c1=O (centres unmarked)	-2.273	-14.88	-12.52	13.16	1.891
COc1ccccc1-c1ncc(CN2C[C@@H](N(C)C)[C@H](C(C)C)C2)s1	2.484	-13.58	-11.44	17.46	3.799
Cc1n[nH]c(C2CN(CC(=O)NCc3cccs3)CCO2)n1 (centres unmarked)	4.225	-4.912	-8.553	27.16	6.17
NC(=O)C1CCN(Cc2cccc(NC(=O)c3ccsc3)c2)CC1	-28.57	-21.06	-19.35	22.33	-2.487
Cc1oncc1C(=O)N1CCC2(C1)CN(c1cccnc1)C(=O)CN2C (centres unmarked)	3.68	-10.82	-1.747	11.32	-0.1049
COCCN1CCC(CNC(=O)c2ccnc(-n3ccnc3)c2)CC1	-3.559	-2.709	12.02	8.85	2.007
CSCc1noc(-c2ccc(C)c(N3CCNC3=O)c2)n1	2.39	-5.252	-9.902	19.47	-0.4082
CC(Cn1cncn1)NC(=O)NCC(C)(C)c1ccc(F)cc1 (centres unmarked)	5.372	-14.59	-9.447	13.33	-0.4836
Cc1ccc(-n2nnc(C(=O)Nc3cc(C)nn3C)c2C2CC2)cc1	6.408	-12.65	6.406	6.154	-1.652
CC(C)c1nn(C)c(N(C)C)c1CNC1CCN(C2CC2)CC1	0	-5.327	-0.3275	16.67	-2.166
Cc1cc(-c2ccc(=O)n(CCNC(=O)C3CC3)n2)c(C)o1	4.11	4.446	-29.79	10.74	-3.143

Some entries from above, unchanged:

Compound,CoaBC,Pks13 thioesterase,ClpP1P2,LiHisRS,MtTrpRS
COCCN1CCC(C(=O)N(C)Cc2c[nH]c3ccc(C)cc23)C1 (centres unmarked),5.405,-,-4.263,19.84,3.361
CSCCCn1ccnc1-c1cccc(C#N)c1,13.25,6.01,8.309,25.37,2.275
Cc1oncc1C(=O)N1CCC2(C1)CN(c1cccnc1)C(=O)CN2C (centres unmarked),3.68,-10.82,-1.747,11.32,-0.1049
Clc1ccccc1CCN1CCN(c2ccc3nncn3n2)CC1,7.646,-4.221,-4.133,36.54,-2.901

The values are deposited in ChEMBL (CHEMBL3988442, “University of Dundee, Small-Polar-MMV Screening Library” (2021)).